# Publication PMC3782429
# Amino acid sequences for entries named in this document (tags omitted).
# UniProt F1M5N7: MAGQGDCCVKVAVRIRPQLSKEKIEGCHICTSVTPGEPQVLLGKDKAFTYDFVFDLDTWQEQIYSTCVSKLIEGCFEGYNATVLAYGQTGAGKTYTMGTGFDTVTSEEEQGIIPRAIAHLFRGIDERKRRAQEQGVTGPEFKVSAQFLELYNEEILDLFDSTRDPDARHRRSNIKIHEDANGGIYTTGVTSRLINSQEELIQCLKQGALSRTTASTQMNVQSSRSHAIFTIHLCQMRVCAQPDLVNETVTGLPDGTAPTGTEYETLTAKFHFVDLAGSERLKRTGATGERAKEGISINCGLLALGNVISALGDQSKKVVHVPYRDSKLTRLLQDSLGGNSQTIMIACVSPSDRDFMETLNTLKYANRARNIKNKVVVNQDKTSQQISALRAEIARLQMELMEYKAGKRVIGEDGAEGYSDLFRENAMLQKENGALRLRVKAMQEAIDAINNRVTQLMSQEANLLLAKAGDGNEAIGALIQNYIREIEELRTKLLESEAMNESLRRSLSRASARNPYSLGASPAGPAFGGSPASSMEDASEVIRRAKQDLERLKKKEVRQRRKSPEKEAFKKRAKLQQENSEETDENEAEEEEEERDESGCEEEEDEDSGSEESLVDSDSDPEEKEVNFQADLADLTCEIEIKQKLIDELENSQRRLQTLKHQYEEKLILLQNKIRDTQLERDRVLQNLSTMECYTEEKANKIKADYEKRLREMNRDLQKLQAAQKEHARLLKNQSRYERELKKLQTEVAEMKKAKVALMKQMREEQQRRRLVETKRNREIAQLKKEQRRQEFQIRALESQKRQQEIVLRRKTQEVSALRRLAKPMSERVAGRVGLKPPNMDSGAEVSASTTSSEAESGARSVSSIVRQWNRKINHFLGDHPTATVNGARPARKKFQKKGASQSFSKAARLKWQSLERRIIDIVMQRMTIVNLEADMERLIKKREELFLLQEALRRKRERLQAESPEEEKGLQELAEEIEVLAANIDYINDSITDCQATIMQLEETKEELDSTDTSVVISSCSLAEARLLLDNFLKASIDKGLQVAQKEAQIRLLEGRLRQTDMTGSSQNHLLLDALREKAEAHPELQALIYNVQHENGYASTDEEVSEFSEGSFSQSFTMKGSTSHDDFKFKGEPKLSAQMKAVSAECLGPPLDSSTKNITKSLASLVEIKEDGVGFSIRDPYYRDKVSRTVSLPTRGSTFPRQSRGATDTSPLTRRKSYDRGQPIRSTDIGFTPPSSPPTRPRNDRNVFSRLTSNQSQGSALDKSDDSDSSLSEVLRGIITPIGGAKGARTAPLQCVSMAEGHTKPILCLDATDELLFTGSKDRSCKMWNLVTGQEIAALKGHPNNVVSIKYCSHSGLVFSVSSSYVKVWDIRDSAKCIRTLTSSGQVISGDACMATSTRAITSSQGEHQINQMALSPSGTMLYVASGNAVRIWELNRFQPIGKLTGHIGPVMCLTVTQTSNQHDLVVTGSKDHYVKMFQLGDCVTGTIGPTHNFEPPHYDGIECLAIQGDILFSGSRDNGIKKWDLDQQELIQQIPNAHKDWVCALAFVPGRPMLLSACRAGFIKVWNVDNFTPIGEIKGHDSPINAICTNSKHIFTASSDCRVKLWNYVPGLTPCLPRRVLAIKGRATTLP
# No constants are given. Whether binding was seen depends on the method and setting. In cells and extracts the contact can be indirect. Some binding calls cover weakened binding; strength is not graded here.
# B1: TRIM3 (endogenous, rat brain) (protein, UniProt O70277 1-744)
# chain: MAKREDSPGPEVQPMDKQFLVCSICLDRYRCPKVLPCLHTFCERCLQNYIPPQSLTLSCPVCRQTSILPEQGVSALQNNFFISSLMEAMQQAPDGAHDPEDPHPLSAVAGRPLSCPNHEGKTMEFYCEACETAMCGECRAGEHREHGTVLLRDVVEQHKAALQRQLEAVRGRLPQLSAAIALVGGISQQLQERKAEALAQISAAFEDLEQALQQRKQALVSDLESICGAKQKVLQTQLDTLRQGQEHIGSSCSFAEQALRLGSAPEVLLVRKHMRERLAALAAQAFPERPHENAQLELVLEVDGLRRSVLNLGALLTTSAAAHETVATGEGLRQALVGQPASLTVTTKDKDGRLVRTGSAELCAEITGPDGMRLAVPVVDHKNGTYELVYTARTEGDLLLSVLLYGQPVRGSPFRVRALRPGDLPPSPDDVKRRVKSPGGPGSHVRQKAVRRPSSMYSTGGKRKDNPIVDELVFRVGSRGREKGEFTNLHPLSAASSGRIVVADSNNQCIQVFSNEGQFKFRFGVRGRSPGQLQRPTGVAVDTNGDIIVADYDNRWVSIFSPEGKFKTKIGAGRLMGPKGVAVDRNGHIIVVDNKSCCVFTFQPNGKLVGRFGGRGATDRHFAGPHFVAVNNKNEIVVTDFHNHSVKVYSADGEFLFKFGSHGEGNGQFNAPTGVAVDSNGNIIVADWGNSRIQVFDSSGSFLSYINTSAEPLYGPQGLALTSDGHVVVADAGNHCFKAYRYLQ
# Biological target: KIF21B (endogenous, rat brain) (rat (endogenous in brain)) (UniProt F1M5N7)
# Assay: co-IP; anti-KIF21B antibody on Protein G Dynabeads incubated 30 min at 4 °C with rat brain P4 lysate (400,000 x g, IM-Ac buffer, 1% Triton-X-100, precleared); washed with modified RIPA buffer; Western blot; control IgG
binder,measurement,value
B1,binding,binds
